Measured values reported in paper PMC13191460.
Results are given in words; binding and its absence hold for the method and conditions named. Binding seen in cells or lysates may run through a third protein. Some entries that bind do so weakly or less than the wild type. For part of these data: Sequences can lack the tags named with a protein.

Chains of the proteins cited; added tags and fusions are not shown.
UniProt P09874: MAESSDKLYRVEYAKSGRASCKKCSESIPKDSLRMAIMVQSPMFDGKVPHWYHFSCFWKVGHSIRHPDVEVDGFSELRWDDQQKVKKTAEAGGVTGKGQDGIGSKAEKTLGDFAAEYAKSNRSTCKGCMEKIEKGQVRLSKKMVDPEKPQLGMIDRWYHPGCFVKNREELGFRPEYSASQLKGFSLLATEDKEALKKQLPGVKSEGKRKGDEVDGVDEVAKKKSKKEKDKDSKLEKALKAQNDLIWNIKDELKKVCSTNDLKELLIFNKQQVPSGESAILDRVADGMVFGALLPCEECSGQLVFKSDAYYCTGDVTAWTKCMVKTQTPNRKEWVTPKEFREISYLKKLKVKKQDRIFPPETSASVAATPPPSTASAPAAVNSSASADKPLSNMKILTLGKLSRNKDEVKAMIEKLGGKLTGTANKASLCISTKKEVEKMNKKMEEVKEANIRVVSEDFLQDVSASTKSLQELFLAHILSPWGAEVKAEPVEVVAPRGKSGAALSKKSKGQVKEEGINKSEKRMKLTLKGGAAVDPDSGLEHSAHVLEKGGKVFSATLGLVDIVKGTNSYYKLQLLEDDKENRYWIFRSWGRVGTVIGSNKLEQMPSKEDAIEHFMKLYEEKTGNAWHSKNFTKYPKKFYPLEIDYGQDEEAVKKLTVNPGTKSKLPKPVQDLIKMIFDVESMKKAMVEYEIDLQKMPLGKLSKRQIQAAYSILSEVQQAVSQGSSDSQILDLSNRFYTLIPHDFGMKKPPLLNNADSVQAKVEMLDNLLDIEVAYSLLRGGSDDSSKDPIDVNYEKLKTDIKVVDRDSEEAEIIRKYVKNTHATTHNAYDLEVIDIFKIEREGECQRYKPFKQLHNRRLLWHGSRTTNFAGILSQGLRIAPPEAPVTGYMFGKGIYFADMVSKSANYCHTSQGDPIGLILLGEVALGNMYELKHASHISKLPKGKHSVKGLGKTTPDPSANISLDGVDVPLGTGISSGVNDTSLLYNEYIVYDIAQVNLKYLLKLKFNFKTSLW

Tests used:
[1] = target: DDX11 (endogenous) (human (endogenous in NOZ and GBC-SD)) (UniProt Q96FC9); experiment: co-IP; endogenous proteins; NOZ and GBC-SD lysates (NETN buffer), cells with or without gemcitabine (NOZ 250 nM, GBC-SD 400 nM) for 14 h; DDX11 antibody on protein A/G magnetic beads, overnight at 4°C; IgG control; western blot
Flag-DDX11 (human) = Flag-DDX11 (human) (UniProt Q96FC9); experiment: co-IP; Flag-DDX11 and Myc-PARP1 expressed in NOZ cells for 72 h; total protein incubated with Flag M2 affinity gel; western blot with tag antibodies

Row | binding [1] | binding (Flag-DDX11 (human)) | Substance
1 | binds | – | PARP1 (endogenous) (from UniProt P09874 1-1014)
2 | binds | – | Ku70/80 (from UniProt P12956 1-609; P13010 1-732) (complex)
3 | – | binds | Myc-PARP1 (from UniProt P09874 1-1014)
